Results from patent US20190135908A1 (Novartis, published 2019).
Results are given in words; binding and its absence hold for the method and conditions named. Binding can be weak; no strength is given.

B1: ABGDF15-A (antibody, human IgG1, kappa, V domains shown)
VH: EVQLVQSGAEVKKPGESLKISCKGSGYSFTDYWISWVRQMPGKGLEWMGIIDPSGSYTIYSPSFQGQVTISADKSISTAYLQWSSLKASDTAMYYCARVSYYGGYFDIWGQGTLVTVSS
VL: DIQMTQSPSSLSASVGDRVTITCRASQSISNNLNWYQQKPGKAPKLLIYAASNLQSGVPSRFSGSGSGTDFTLTISSLQPEDFATYYCFQLDHSPFTFGQGTKVEIKR
notes: captured through anti-human Fc in the Biacore assay
B2: ABGDF15-D (antibody, human IgG1, lambda, V domains shown)
VH: EVQLVQSGAEVKKPGESLKISCKGSGYSFTSYWIGWVRQMPGKGLEWMGVIDPDGSYTIYSPSFQGQVTISADKSISTAYLQWSSLKASDTAMYYCARYGRYGTYFDYWGQGTLVTVSS
VL: QSVLTQPPSVSGAPGQRVTISCSGSSSNIGVLYVNWYQQLPGTAPKLLIYSNDNRPSGVPDRFSGSKSGTSASLAITGLQAEDEADYYCQSWDSSSNYVFGGGTKLTVLG
notes: as for B1
B3: ABGDF15-E (antibody, human IgG1, lambda, V domains shown)
VH: EVQLVQSGAEVKKPGESLKISCKGSGYSFTSYWIGWVRQMPGKGLEWMGVIDPGGSYTIYSPSFQGQVTISADKSISTAYLQWSSLKASDTAMYYCARYGRYGTYFDYWGQGTLVTVSS
VL: QSVLTQPPSVSGAPGQRVTISCSGSSSNIGVLYVNWYQQLPGTAPKLLIYSNDNRPSGVPDRFSGSKSGTSASLAITGLQAEDEADYYCQSWDSSSNYVFGGGTKLTVLG
notes: as for B1
B4: ABGDF15-F (antibody, human IgG1, lambda, V domains shown)
VH: EVQLVQSGAEVKKPGESLKISCKGSGYSFTSYWIGWVRQMPGKGLEWMGVIDPSGSYTIYSPSFQGQVTISADKSISTAYLQWSSLKASDTAMYYCARYGRYGTYFDYWGQGTLVTVSS
VL: QSVLTQPPSVSGAPGQRVTISCSGSSSNIGVLYVNWYQQLPGTAPKLLIYSNDNRPSGVPDRFSGSKSGTSASLAITGLQAEDEADYYCQSWDSSSNYVFGGGTKLTVLG
notes: as for B1
B5: ABGDF15-G (antibody, human IgG1, kappa, V domains shown)
VH: QVQLVQSGAEVKKPGSSVKVSCKASGGTFSSHYINWVRQAPGQGLEWMGGIIPAFGGANYAQKFQGRVTITADESTSTAYMELSSLRSEDTAVYYCARFGSVYVSRYSSYYHMDVWGQGTLVTVSS
VL: DIQMTQSPSSLSASVGDRVTITCRASQTIYRSLAWYQQKPGKAPKLLIYGASILQSGVPSRFSGSGSGTDFTLTISSLQPEDFATYYCLQRYTSPFTFGQGTKVEIKR
notes: as for B1

Molecular target: rodent GDF15
Test: direct ELISA: GDF15 variant coated on the plate, serially diluted antibody, anti-human IgG-HRP detection

binding, binds:
B1, B2, B3, B4, B5
